{"source": "PubChem BioAssay AID540276", "about": "(National Center for Advancing Translational Sciences (NCATS), 2011)", "note": "About 5,400 (1.8%) of roughly 300,000 compounds were called active. Inconclusive results, whose numbers are uncertain, are shown with a selection of clear calls. Calls follow the shape of the full dose curve; tested in HEK293 cells. A potency beside an inconclusive call is a rough fit, not a confirmed value. Potency is read from the fitted curve at half-maximal effect.", "data": [{"assay": "qHTS for inhibitors of binding or entry into cells for Marburg Virus", "details": "Marburg virus pseudotyped entry inhibition, cell reporter; series mostly up to 37.8 µM", "values": [{"molecule": "COc1ccc(C)cc1S(=O)(=O)Nc1cccc(-c2cn3cccnc3n2)c1", "Potency": "inconclusive: 3.98 µM [inhibitor, full curve, poor fit]"}, {"molecule": "CN(C)C(CNC(=O)Cc1cccc(C(F)(F)F)c1)c1ccccc1", "note": "(stereo not drawn)", "Potency": "inconclusive: 14.1 µM [inhibitor, partial curve, poor fit]"}, {"molecule": "O=C(/C=C/c1ccco1)NCCCN1CCN(CCCNC(=O)/C=C/c2ccco2)CC1", "Potency": "inactive"}, {"molecule": "Cc1cccc(Nc2cc(C)nc3nc(-c4ccccc4)nn23)c1", "Potency": "inconclusive: 35.5 µM [activator, single point]"}, {"molecule": "C=CCn1c2ccccc2c2nnc(SCCCn3c(=O)[nH]c4ccccc43)nc21", "Potency": "inconclusive: 35.5 µM [inhibitor, single point]"}, {"molecule": "CC1CCCN(c2ccc([N+](=O)[O-])cc2C(=O)c2ccccc2)C1", "note": "(stereo not drawn)", "Potency": "inconclusive: 1.16 µM [inhibitor, full curve, poor fit]"}, {"molecule": "Cc1ccc(CNC(=O)CCc2c(C)c3cc4c(C)coc4cc3oc2=O)cc1", "Potency": "inactive"}, {"molecule": "O=C(N/N=C/c1ccc(-c2ccccc2[N+](=O)[O-])o1)[C@H]1C[C@@H]1c1ccccc1", "Potency": "inconclusive: 29.1 µM [inhibitor, single point]"}, {"molecule": "CC1(C)C(CSc2nc3ccccc3[nH]2)C1(Cl)Cl", "note": "(stereo not drawn)", "Potency": "inconclusive: 12.6 µM [inhibitor, single point]"}, {"molecule": "Nc1nc(CN2CCCCCC2)nc(Nc2ccccc2)n1", "Potency": "inactive"}, {"molecule": "CCC(Sc1ccccn1)C(=O)Nc1cccc([N+](=O)[O-])c1", "note": "(stereo not drawn)", "Potency": "inconclusive: 20 µM [inhibitor, partial curve, poor fit]"}, {"molecule": "Cc1ccc(Cl)cc1N1CCN(C(=O)c2ccc3nc[nH]c3c2)CC1", "Potency": "inconclusive: 29.1 µM [inhibitor, single point]"}, {"molecule": "Clc1ccc(-c2nc3ncccn3c2Nc2ccc3c(c2)OCCO3)cc1", "Potency": "inconclusive: 0.164 µM [inhibitor, partial curve, poor fit]"}, {"molecule": "CCOC(=O)c1ccc(N2C(=O)c3n[nH]c(-c4cccs4)c3C2c2cccc(O)c2)cc1", "note": "(stereo not drawn)", "Potency": "inconclusive: 35.5 µM [inhibitor, single point]"}, {"molecule": "CSCCC(NC(=O)c1ccc(Cl)cc1)C(=O)OCC(=O)Nc1ccc(C#N)cc1", "note": "(stereo not drawn)", "Potency": "inconclusive: 1.41 µM [inhibitor, partial curve, poor fit]"}, {"molecule": "O=C(CCC1N=C2c3ccccc3N=C(SCc3ccc(F)cc3)N2C1=O)N1CCN(c2ccccc2)CC1", "note": "(stereo not drawn)", "Potency": "inactive"}, {"molecule": "COc1ccc(NC(=O)[C@@H]2[C@@H]3C(=O)N(C4CCCCC4)C(=O)[C@@H]3C3c4ccccc4C=CN32)cc1", "note": "(stereo partly drawn)", "Potency": "inactive"}, {"molecule": "C=CCN(C(=O)c1csnn1)C(C(=O)NCc1ccc(F)cc1)c1ccc(F)cc1", "note": "(stereo not drawn)", "Potency": "inconclusive: 8.91 µM [inhibitor, partial curve, poor fit]"}, {"molecule": "Cc1ccc(/C=C2\\SC(=S)N(/N=C/c3cc([N+](=O)[O-])ccc3O)C2=O)o1", "Potency": "inactive"}, {"molecule": "CCOC(=O)CNC(=S)N(CCCN1CCCC1)Cc1cccs1", "Potency": "inconclusive: 15.8 µM [inhibitor, partial curve, poor fit]"}, {"molecule": "COC(=O)c1sc(=S)n(-c2ccccc2OC)c1N", "Potency": "inactive"}, {"molecule": "Cc1cccc(NC(=O)Cn2nnc(-c3ccc(CN4CCCC4)cc3)n2)c1C", "Potency": "inconclusive: 13 µM [inhibitor, partial curve, poor fit]"}, {"molecule": "COc1ccc([N+](=O)[O-])cc1NC(=O)C(C)Sc1nc(-c2ccccc2)cs1", "note": "(stereo not drawn)", "Potency": "inconclusive: 15.8 µM [inhibitor, single point]"}, {"molecule": "Cn1nc(C(=O)Nc2c(-c3ccccc3)nc3sccn23)c2ccccc2c1=O", "Potency": "inconclusive: 16.4 µM [inhibitor, single point]"}, {"molecule": "O=C(CSc1nc2ccc(Nc3nc(N4CCOCC4)nc(N4CCOCC4)n3)cc2s1)Nc1ccccc1Cl", "Potency": "inconclusive: 28.2 µM [inhibitor, single point]"}, {"molecule": "Nc1c(-c2ccccc2)cnn1-c1ccc(C(=O)O)cc1", "Potency": "inconclusive: 0.291 µM [activator, partial curve, poor fit]"}, {"molecule": "CC(C)COC(=O)c1ccc(NC(=O)C2C3C=CC(C3)C2C(=O)O)cc1", "note": "(stereo not drawn)", "Potency": "inconclusive: 4.47 µM [activator, full curve, poor fit]"}, {"molecule": "COc1cc2c(cc1OC)C(C)N(C(=O)c1nccnc1C(=O)O)CC2", "note": "(stereo not drawn)", "Potency": "inconclusive: 35.5 µM [activator, single point]"}, {"molecule": "S=C(NC1CC1)NC1CCCc2ccccc21", "note": "(stereo not drawn)", "Potency": "inactive"}, {"molecule": "c1ccc(-c2csc(=Nc3cccnc3)n2CC2CCCO2)cc1", "note": "(stereo not drawn)", "Potency": "inconclusive: 35.5 µM [inhibitor, partial curve, poor fit]"}, {"molecule": "COc1ccc(OC)c(NC(=O)Cc2coc3cc(C)cc(C)c23)c1", "Potency": "inactive"}, {"molecule": "CCOc1ccc(C2C(C(=O)c3ccco3)=C(O)C(=O)N2Cc2cccnc2)cc1OC", "note": "(stereo not drawn)", "Potency": "inactive"}, {"molecule": "Cc1ccc(S(=O)(=O)NCC(=O)N(CC(=O)NC2CCCCC2)Cc2ccco2)cc1", "Potency": "inconclusive: 35.5 µM [inhibitor, single point]"}, {"molecule": "COc1ccc2cc(C(=O)Nc3ccc(S(N)(=O)=O)cc3)sc(=O)c2c1OC", "Potency": "inconclusive: 0.562 µM [inhibitor, full curve, poor fit]"}, {"molecule": "O=C(Nc1ccc(Cl)cc1Cl)C1=Cc2ccccc2OC1", "Potency": "inconclusive: 14.1 µM [inhibitor, partial curve, poor fit]"}, {"molecule": "O=C(NCc1csc(-c2cccs2)n1)C1CC1", "Potency": "inconclusive: 3.55 µM [activator, partial curve, poor fit]"}, {"molecule": "O=C(c1ccc2c(c1)OCO2)N1CCCc2ccccc21", "Potency": "inactive"}, {"molecule": "Cc1ccccc1NC(=O)NCCCN1CCN(C2CCCCC2)CC1", "Potency": "inactive"}, {"molecule": "O=C(c1ccc(Br)o1)N1CCN(c2ccccn2)CC1", "Potency": "inactive"}, {"molecule": "CCOc1ccc(C2CC(=O)c3c([nH]c(C(=O)OC)c3C)C2)cc1OC", "note": "(stereo not drawn)", "Potency": "inconclusive: 0.316 µM [activator, partial curve, poor fit]"}, {"molecule": "CCN(CC)c1ccc2cc(C(N)=O)c(=O)oc2c1", "Potency": "inactive"}, {"molecule": "COc1ccc(OC)c(/C(O)=C/C(=O)C(=O)Nc2ccccc2OC)c1", "Potency": "inactive"}, {"molecule": "N#CCCN(C(=O)COC(=O)c1cccc(S(=O)(=O)Nc2ccc([N+](=O)[O-])cc2)c1)c1ccccc1", "Potency": "inconclusive: 1.26 µM [activator, single point]"}]}]}
